Values from PubChem BioAssay AID1224831 (NIAID, 2016).

Aim: 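Genes that support or restrain LPS-induced TNF-alpha reporter activity in macrophage-like cells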 (follow-up of hits)
Cells: human THP-1 B5 monocytic leukaemia cells carrying a TNF promoter luciferase reporter, made macrophage-like with PMA
Knock-down reagent: single siRNA against human genes, 50 nM
Duration: about 68 h of knock-down, then 4 h LPS
Treatment: LPS (Salmonella minnesota, TLR-grade) at 10 ng/ml for 4 h; PMA 5 ng/ml present during knock-down
Read-out: 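TNF promoter reporter read as dual luciferase ratio after 4 h LPS, normalised per plate to its median, given as replicate mean robust z-score per siRNA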
Reading the numbers: TNF reporter z-score: higher = stronger LPS-induced TNF reporter signal; z-score, median over gene's siRNAs: higher = stronger TNF reporter signal across the gene's siRNAs
Call rule: 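Active when the replicate mean z-score is about -1 or lower, or about 1.5 or higher; lowered and raised TNF reporter signal both count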
Meaning of the calls: active = changed TNF reporter (either direction); inactive = little change
This is one part, drawn at random, of about 3,500 deposited reagents. 731 of all reagents (21%) were called active. 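Active means either lowered or raised reporter signal; the gene-median score did not drive the per-siRNA calls.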 Entries without a mark were called inactive. The numbers tell different reagents against one gene apart.

target gene | reagent no. | TNF reporter z-score, replicate mean | z-score, median over gene's siRNAs
HMGN5 | 1 | 0.93 | -0.04
HMGN5 | 2 | -0.66 | -0.04
HMGN5 | 3 | 0.58 | -0.04
HMGN5 | 4 | 1.3 | -0.04
HMGN5 | 5 | -1.1 (active) | -0.04
HMGN5 | 6 | -1.07 (active) | -0.04
PLCXD2 | 1 | 0.04 | -0.185
PLCXD2 | 2 | 0.8 | -0.185
PLCXD2 | 3 | -0.05 | -0.185
PLCXD2 | 4 | -0.32 | -0.185
PLCXD2 | 5 | -0.75 | -0.185
PLCXD2 | 6 | -0.59 | -0.185
BUB3 | 1 | 1.67 (active) | 0.625
BUB3 | 2 | -0.84 | 0.625
BUB3 | 3 | 0.64 | 0.625
BUB3 | 4 | -0.7 | 0.625
BUB3 | 5 | 0.61 | 0.625
BUB3 | 6 | 0.8 | 0.625
PICK1 | 1 | 1.21 | 0.265
PICK1 | 2 | 0.05 | 0.265
PICK1 | 3 | -1.53 (active) | 0.265
PICK1 | 4 | 0.93 | 0.265
PICK1 | 5 | -0.04 | 0.265
PICK1 | 6 | 0.48 | 0.265
PSMB2 | 1 | -0.16 | -1.29
PSMB2 | 2 | -0.93 | -1.29
PSMB2 | 3 | -1.22 (active) | -1.29
PSMB2 | 4 | -1.36 (active) | -1.29
PSMB2 | 5 | -1.44 (active) | -1.29
PSMB2 | 6 | -1.69 (active) | -1.29
CFLAR | 1 | -2.03 (active) | -1.15
CFLAR | 2 | -1.44 (active) | -1.15
CFLAR | 3 | -2.12 (active) | -1.15
CFLAR | 4 | 1.45 | -1.15
CFLAR | 5 | -0.62 | -1.15
CFLAR | 6 | -0.85 | -1.15
MICOS13 | 1 | 0.6 | -0.22
MICOS13 | 2 | -0.74 | -0.22
MICOS13 | 3 | 0.06 | -0.22
MICOS13 | 4 | 0.24 | -0.22
MICOS13 | 5 | -0.64 | -0.22
MICOS13 | 6 | -0.5 | -0.22
VGLL1 | 1 | -0.17 | -0.465
VGLL1 | 2 | -0.78 | -0.465
VGLL1 | 3 | -0.3 | -0.465
VGLL1 | 4 | -0.63 | -0.465
VGLL1 | 5 | -0.75 | -0.465
VGLL1 | 6 | 0.75 | -0.465
TTBK2 | 1 | 0.18 | 0.095
TTBK2 | 2 | -0.1 | 0.095
TTBK2 | 3 | 0.01 | 0.095
TTBK2 | 4 | 1.18 | 0.095
TTBK2 | 5 | 0.43 | 0.095
TTBK2 | 6 | -1.32 (active) | 0.095
BRSK2 | 1 | 1.14 | 0.81
BRSK2 | 2 | -0.03 | 0.81
BRSK2 | 3 | 1.43 | 0.81
BRSK2 | 4 | -0.34 | 0.81
BRSK2 | 5 | 0.48 | 0.81
BRSK2 | 6 | 1.56 (active) | 0.81
LRRC4 | 1 | 0.53 | -0.46
LRRC4 | 2 | -1.6 (active) | -0.46
LRRC4 | 3 | -0.78 | -0.46
LRRC4 | 4 | 0.91 | -0.46
LRRC4 | 5 | -0.14 | -0.46
LRRC4 | 6 | -1.09 (active) | -0.46
RWDD2B | 1 | -1.05 (active) | -0.47
RWDD2B | 2 | 0.71 | -0.47
RWDD2B | 3 | 0.3 | -0.47
RWDD2B | 4 | -0.61 | -0.47
RWDD2B | 5 | -0.82 | -0.47
RWDD2B | 6 | -0.33 | -0.47
H3C14 | 1 | 0.78 | -0.05
H3C14 | 2 | 0.17 | -0.05
H3C14 | 3 | -0.5 | -0.05
H3C14 | 4 | -0.58 | -0.05
H3C14 | 5 | 0.16 | -0.05
H3C14 | 6 | -0.26 | -0.05
TRAF4 | 1 | -0.86 | -0.49
TRAF4 | 2 | -1.21 (active) | -0.49
TRAF4 | 3 | 2.39 (active) | -0.49
TRAF4 | 4 | 0.15 | -0.49
TRAF4 | 5 | -0.44 | -0.49
TRAF4 | 6 | -0.54 | -0.49

Copied from the list:
Result of PSMB2 #2 in “TNF reporter z-score, replicate mean”: -0.93
For “z-score, median over gene's siRNAs”, PSMB2 #3 reads -1.29 (active)
BUB3 #6, z-score, median over gene's siRNAs: 0.625
CFLAR #2, TNF reporter z-score, replicate mean: -1.44 (active)
PLCXD2 #2, z-score, median over gene's siRNAs = -0.185
PICK1 #1, z-score, median over gene's siRNAs: 0.265
